Assay results reported in PMC12594893.
No constants are given. Whether binding was seen depends on the method and setting. Binding seen in cells or lysates may run through a third protein. Some binding calls cover weakened binding; strength is not graded here. Each block holds one binder with its values, some of them ahead of it.

Tests used:
[1] = target: T1, Ceramide synthase 6 (CERS6), endogenous in KYSE150 and KYSE450 cells (human (endogenous in KYSE150, KYSE450)) (UniProt Q6ZMG9); assay: co-IP; ESCC cells (KYSE150, KYSE450, CERS6-overexpressing KYSE70; also KYSE150 and KYSE450 after CERS6 knockout) lysed in 50 mM Tris pH 8.0, 150 mM NaCl, 0.5% NP-40; CERS6 antibody and protein A/G agarose beads overnight at 4 °C; Western blot
T1 sequence: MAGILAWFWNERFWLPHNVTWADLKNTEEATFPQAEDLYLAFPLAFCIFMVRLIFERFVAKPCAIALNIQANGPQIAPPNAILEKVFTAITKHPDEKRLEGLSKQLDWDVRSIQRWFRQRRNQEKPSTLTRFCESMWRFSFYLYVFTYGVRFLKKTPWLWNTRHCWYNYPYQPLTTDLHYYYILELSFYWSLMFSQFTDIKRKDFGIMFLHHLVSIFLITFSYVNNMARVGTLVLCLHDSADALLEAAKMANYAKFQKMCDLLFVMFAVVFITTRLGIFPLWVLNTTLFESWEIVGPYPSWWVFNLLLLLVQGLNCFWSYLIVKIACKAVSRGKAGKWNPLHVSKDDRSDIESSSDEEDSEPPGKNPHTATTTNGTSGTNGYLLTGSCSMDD

[2] = target: T2, CERS6 Homeobox-like (Hox) domain (1-127), truncated CERS6 (human) (UniProt Q6ZMG9); assay: co-IP; truncated CERS6 (Hox domain 1-127, TLC domain 128-384) and RPN1; cells and tags not stated
T2 sequence: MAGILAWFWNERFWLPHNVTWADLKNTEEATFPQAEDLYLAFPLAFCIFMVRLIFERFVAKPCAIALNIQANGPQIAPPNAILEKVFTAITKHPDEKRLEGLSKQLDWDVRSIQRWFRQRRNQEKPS

binding [1]: binds
B1: Ribophorin I (RPN1), endogenous in ESCC cells (protein, UniProt P04843 24-607)
chain: ASSEAPPLINEDVKRTVDLSSHLAKVTAEVVLAHLGGGSTSRATSFLLALEPELEARLAHLGVQVKGEDEEENNLEVRETKIKGKSGRFFTVKLPVALDPGAKISVIVETVYTHVLHPYPTQITQSEKQFVVFEGNHYFYSPYPTKTQTMRVKLASRNVESYTKLGNPTRSEDLLDYGPFRDVPAYSQDTFKVHYENNSPFLTITSMTRVIEVSHWGNIAVEENVDLKHTGAVLKGPFSRYDYQRQPDSGISSIRSFKTILPAAAQDVYYRDEIGNVSTSHLLILDDSVEMEIRPRFPLFGGWKTHYIVGYNLPSYEYLYNLGDQYALKMRFVDHVFDEQVIDSLTVKIILPEGAKNIEIDSPYEISRAPDELHYTYLDTFGRPVIVAYKKNLVEQHIQDIVVHYTFNKVLMLQEPLLVVAAFYILFFTVIIYVRLDFSITKDPAAEARMKVACITEQVLTLVNKRIGLYRHFDETVNRYKQSRDISTLNSGKKSLETEHKALTSEIALLQSRLKTEGSDLCDRVSEMQKLDAQVKELVLKSAVEAERLVAGKLKKDTYIENEKLISGKRQELVTKIDHILDAL

binding [2]: no binding
B2: RPN1 as used in the co-immunoprecipitation with truncated CERS6 (protein, UniProt P04843 24-607)
chain: B1 chain
